Consider one molecule from article PMC8885737.

The target of the experiment is T1, RIG-I (mouse (endogenous in Raw264.7)) (UniProt Q6Q899).
T1 sequence: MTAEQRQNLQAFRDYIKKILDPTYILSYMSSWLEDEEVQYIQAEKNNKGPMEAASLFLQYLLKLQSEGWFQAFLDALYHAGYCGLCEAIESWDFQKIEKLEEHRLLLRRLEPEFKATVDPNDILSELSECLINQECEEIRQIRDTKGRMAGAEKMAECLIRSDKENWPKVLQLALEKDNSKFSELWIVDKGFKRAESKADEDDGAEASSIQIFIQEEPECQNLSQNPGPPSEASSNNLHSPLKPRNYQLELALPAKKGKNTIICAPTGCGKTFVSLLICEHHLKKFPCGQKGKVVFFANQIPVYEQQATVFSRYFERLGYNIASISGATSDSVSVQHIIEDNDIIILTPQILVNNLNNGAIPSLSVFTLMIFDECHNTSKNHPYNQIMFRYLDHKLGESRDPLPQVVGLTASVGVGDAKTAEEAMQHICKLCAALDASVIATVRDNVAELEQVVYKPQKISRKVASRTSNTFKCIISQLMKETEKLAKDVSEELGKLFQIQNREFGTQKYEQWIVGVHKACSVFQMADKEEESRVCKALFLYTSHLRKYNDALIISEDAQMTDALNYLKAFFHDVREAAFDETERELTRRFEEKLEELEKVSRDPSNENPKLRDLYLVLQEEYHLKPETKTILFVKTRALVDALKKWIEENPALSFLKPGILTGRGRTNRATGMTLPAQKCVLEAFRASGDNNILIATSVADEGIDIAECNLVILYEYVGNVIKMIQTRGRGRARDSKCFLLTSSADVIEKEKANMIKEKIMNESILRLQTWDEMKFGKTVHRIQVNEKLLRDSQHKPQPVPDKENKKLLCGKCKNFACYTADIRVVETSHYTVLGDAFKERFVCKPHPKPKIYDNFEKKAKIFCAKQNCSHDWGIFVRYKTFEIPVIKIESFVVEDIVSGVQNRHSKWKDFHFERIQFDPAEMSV
Put plainly: co-IP; total protein of Raw264.7 cells, control (NC) or treated with 200 uM ferrous myoglobin for 12 h, in IP lysis buffer; overnight at 4 °C with 1 ug monoclonal anti-RIG-I or anti-Caspase1 antibody and protein-A magnetic beads; blot with anti-Caspase1 or anti-RIG-I.

These are yes or no findings as the source states them, for the method shown. In cells and extracts the contact can be indirect. Some results given as binding are weak or reduced against the parent protein; the word gives no strength.

B1: caspase1 (protein, UniProt P29452 1-402)
chain: MADKILRAKRKQFINSVSIGTINGLLDELLEKRVLNQEEMDKIKLANITAMDKARDLCDHVSKKGPQASQIFITYICNEDCYLAGILELQSAPSAETFVATEDSKGGHPSSSETKEEQNKEDGTFPGLTGTLKFCPLEKAQKLWKENPSEIYPIMNTTTRTRLALIICNTEFQHLSPRVGAQVDLREMKLLLEDLGYTVKVKENLTALEMVKEVKEFAACPEHKTSDSTFLVFMSHGIQEGICGTTYSNEVSDILKVDTIFQMMNTLKCPSLKDKPKVIIIQACRGEKQGVVLLKDSVRDSEEDFLTDAIFEDDGIKKAHIEKDFIAFCSSTPDNVSWRHPVRGSLFIESLIKHMKEYAWSCDLEDIFRKVRFSFEQPEFRLQMPTADRVTLTKRFYLFPGH
Take B1: the binding result is “binds”.
